Literature values as cited in patent US20160367620A1, “GLUTATHIONE” (priority 2015, published 2016).
For at least one compound, name, drawing or mass did not settle the structure.

Tested on: microglial cells
Conditions: NO and superoxide generated via iNOS and NADPH-oxidase; cited from earlier work

Structure (SMILES): O=C1O[C@H]([C@@H](O)CO)C(O)=C1O [ascorbate]
- peroxynitrite formation: not
